In test [1] the target is human BLM RQC domain (a.a. 1068–1209) (human) (UniProt P54132). As to the kind of experiment: AUC; sedimentation equilibrium, 20°C, 10 mM Tris-HCl (pH 7.5), 0.1 M NaCl, 34, 67 and 200 μM protein, 29,000 rpm, single-species model; both purified.
For test [2] the target is unchanged. Nature of the test: AUC; sedimentation velocity, 20°C, 10 mM Tris-HCl (pH 7.5), 0.1 M NaCl, ~70 μM protein, 40,000 rpm; both purified.

Chains of the proteins cited; added tags and fusions are not shown. Lines headed by an entry give the natural chain unless they say otherwise; changes in a name come on top. A line that says so, or that is headed by a name, gives the form on record, which may keep a tag or linker.
human BLM RQC domain (a.a. 1068–1209) (P54132, form named): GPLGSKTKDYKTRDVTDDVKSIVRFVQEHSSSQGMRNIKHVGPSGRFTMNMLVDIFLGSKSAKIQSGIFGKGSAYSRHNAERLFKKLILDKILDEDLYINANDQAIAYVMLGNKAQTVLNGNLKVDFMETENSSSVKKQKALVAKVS

No constants are given. Whether binding was seen depends on the method and setting.

Regarding “human BLM RQC domain (a.a. 1068–1209) (from UniProt P54132 1068-1209) (domain or fragment)”, the binding result was “no binding (tested: 34, 67 and 200 μM)” in test [1]; “no binding (tested: ~70 μM)” in test [2].

The record behind these values is publication PMC6505963.
